Laboratory results taken from publication doi:10.1101/2023.04.28.538665.
No constants are given. Whether binding was seen depends on the method and setting. In cells and extracts the contact can be indirect. A result given as binding can be weak or reduced; the word gives no strength.

Target: mRFP-tagged Shank3 N-terminus (SPN+Ank) (rat) (UniProt Q9JLU4)
Experiment: co-IP

HA-tagged Rap1a G12V (from UniProt P62834 1-184)
binding: binds
